Data source: PubChem BioAssay AID1159584 (Peter MacCallum Cancer Centre, 2016)
Purpose: 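Genes that CDH1-null MCF10A cells selectively depend on to survive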 (primary screen). System: human MCF10A breast epithelial cells, parental and CDH1-null. Knock-down reagent: siRNA against human genes. Measured: 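ATP luminescence (CellTiter-Glo) viability per line relative to mean mock wells over all plates, and the ratio of CDH1-null to parental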. Reading the numbers: CDH1-null / parental viability ratio: higher = CDH1-null cells survive relatively better than parental.
The whole screen tested about 18,000 reagents; shown is a random part of them. Further read-outs or replicates are left out here. The record does not give: the amount of reagent, the time to read-out.

| Target gene | CDH1-null / parental viability ratio |
| --- | --- |
| FBXO7 (F-box protein 7) | 1.15 |
| NPFFR2 (neuropeptide FF receptor 2) | 1.27 |
| CDC37P1 (cell division cycle 37 pseudogene 1) | 0.9 |
| SLC35F4 | 1 |
| KRTAP19-2 (keratin associated protein 19-2) | 1.35 |
| TP53BP1 (tumor protein p53 binding protein 1) | 1.05 |
| CCDC144BP (coiled-coil domain containing 144B, pseudogene) | 0.9 |
| WDR54 (WD repeat domain 54) | 0.73 |
| NOS1 (nitric oxide synthase 1) | 0.96 |
| RASSF3 (Ras association domain family member 3) | 1 |
| RBP2 (retinol binding protein 2) | 1.15 |
| LHX5 (LIM homeobox 5) | 0.98 |
| IARS1 (isoleucyl-tRNA synthetase 1) | 0.88 |
| C19orf25 (chromosome 19 open reading frame 25) | 1.14 |
| CDC123 (cell division cycle 123) | 1.05 |
| ABCB6 (ATP binding cassette subfamily B member 6 (LAN blood group)) | 0.8 |
| HNRNPK (heterogeneous nuclear ribonucleoprotein K) | 1 |
| ASPG (asparaginase) | 0.93 |
| FGF5 (fibroblast growth factor 5) | 0.92 |
| PHF2 (PHD finger protein 2) | 0.73 |
| GHRL (ghrelin and obestatin prepropeptide) | 1.58 |
| RBPJL | 0.95 |
| OR2A5 (olfactory receptor family 2 subfamily A member 5) | 1.12 |
| SEC11A (SEC11 homolog A, signal peptidase complex subunit) | 1.03 |
| MRGPRX2 (MAS related GPR family member X2) | 1.15 |
| TRIM34 (tripartite motif containing 34) | 0.84 |
| COX7C (cytochrome c oxidase subunit 7C) | 1.08 |
| MRPS22 (mitochondrial ribosomal protein S22) | 1.1 |
| PLEKHA8 (pleckstrin homology domain containing A8) | 0.94 |
| SYT14 (synaptotagmin 14) | 0.74 |
| LRRC8A (leucine rich repeat containing 8 VRAC subunit A) | 0.79 |
| ZCCHC24 (zinc finger CCHC-type containing 24) | 1.18 |
| FADS1 (fatty acid desaturase 1) | 0.95 |
| CTNNA2 (catenin alpha 2) | 0.81 |
| FAM120C (family with sequence similarity 120 member C) | 0.88 |
| RBM17 (RNA binding motif protein 17) | 1.42 |
| TRAF6 (TNF receptor associated factor 6) | 0.91 |
| CARMIL2 (capping protein regulator and myosin 1 linker 2) | 1.02 |
| KANSL1 (KAT8 regulatory NSL complex subunit 1) | 0.79 |
| FANCF (FA complementation group F) | 0.89 |
| SPATS1 (spermatogenesis associated serine rich 1) | 0.94 |
| PRSS57 (serine protease 57) | 1.1 |
| PLD6 (phospholipase D family member 6) | 1.28 |
| SLC9A2 | 1.06 |
| IFI35 (interferon induced protein 35) | 1.18 |
| CAPN10 (calpain 10) | 1.08 |
| SNAPC2 (small nuclear RNA activating complex polypeptide 2) | 0.86 |
| PNPLA4 | 1.02 |
| MEIS2 (Meis homeobox 2) | 0.9 |
| SYTL4 (synaptotagmin like 4) | 0.93 |
| OR10A2 (olfactory receptor family 10 subfamily A member 2) | 1 |
| GOLGA8A (golgin A8 family member A) | 1.31 |
| BEGAIN (brain enriched guanylate kinase associated) | 0.92 |
| VPS37B (VPS37B subunit of ESCRT-I) | 0.77 |
| ZBTB20 (zinc finger and BTB domain containing 20) | 0.85 |
| FBXO22 (F-box protein 22) | 0.98 |
| EMX1 (empty spiracles homeobox 1) | 0.92 |
| CHRNB2 (cholinergic receptor nicotinic beta 2 subunit) | 1.38 |
| ZNF184 (zinc finger protein 184) | 0.54 |
| ATF4 (activating transcription factor 4) | 1.01 |
| SLC17A5 | 0.98 |
| C1QTNF9 (C1q and TNF related 9) | 1 |
| CBFA2T3 (CBFA2/RUNX1 partner transcriptional co-repressor 3) | 0.74 |
| ADGRE3 (adhesion G protein-coupled receptor E3) | 1.33 |
| BAIAP2L1 (BAR/IMD domain containing adaptor protein 2 like 1) | 0.98 |
| ZNF19 (zinc finger protein 19) | 1.13 |
| MECR (mitochondrial trans-2-enoyl-CoA reductase) | 1.07 |
| GSAP (gamma-secretase activating protein) | 1.17 |

An excerpt taken from the entries so far, for reference:
| Target gene | CDH1-null / parental viability ratio |
| --- | --- |
| ZNF184 (zinc finger protein 184) | 0.54 |
| ATF4 (activating transcription factor 4) | 1.01 |
| SLC17A5 | 0.98 |
| C1QTNF9 (C1q and TNF related 9) | 1 |
| CBFA2T3 (CBFA2/RUNX1 partner transcriptional co-repressor 3) | 0.74 |
| ADGRE3 (adhesion G protein-coupled receptor E3) | 1.33 |
| BAIAP2L1 (BAR/IMD domain containing adaptor protein 2 like 1) | 0.98 |
| ZNF19 (zinc finger protein 19) | 1.13 |
| MECR (mitochondrial trans-2-enoyl-CoA reductase) | 1.07 |
